The other results are listed elsewhere or left out.
Columns and labels:
Assay in all cases: log2 fold change, soluble protein after heating vs DMSO (PISA); higher = thermal stabilisation; K562 lysate, 10 uM; active = over 0.2 and 3.5 SD of the protein, either way, in both replicates (recomputed)
[1] = compound: C=CC(=O)N1CCC[C@@H](n2nc(-c3ccc(Oc4ccccc4)cc3)c3c(N)ncnc32)C1 [ibrutinib]
Outline: (§1)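 K562 pellets were dounce-homogenised in PBS pH 7.4 with 1 mM MgCl2, and the crude extract at 1 mg/mL protein was treated with 10 μM compound for 30 min. Aliquots were heated for 3 min across 48°C-58°C, pooled, and brought to 0.5% NP-40 at 4°C; soluble protein was the supernatant after 21,000xg for 90 min. Soluble protein was quantified by TMTpro 16plex LC-MS/MS with channel sums equalised, and reported as log2 fold change in thermal stability against DMSO controls, with values from duplicates.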

By UniProt entry, the sequences of proteins in these tests, tags left out. Where a name states a change or a piece, a line headed by the entry shows the natural chain unless it says otherwise.
UniProt Q9UEE9, whole entry, looked up: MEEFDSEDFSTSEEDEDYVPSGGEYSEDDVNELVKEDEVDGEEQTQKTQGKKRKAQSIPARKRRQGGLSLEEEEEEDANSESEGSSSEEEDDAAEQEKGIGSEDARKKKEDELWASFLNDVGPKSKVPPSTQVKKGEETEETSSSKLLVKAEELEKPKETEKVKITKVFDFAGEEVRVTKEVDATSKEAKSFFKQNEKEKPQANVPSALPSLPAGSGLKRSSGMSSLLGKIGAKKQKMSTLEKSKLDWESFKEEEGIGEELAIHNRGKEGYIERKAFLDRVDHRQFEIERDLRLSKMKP
UniProt Q9BS16: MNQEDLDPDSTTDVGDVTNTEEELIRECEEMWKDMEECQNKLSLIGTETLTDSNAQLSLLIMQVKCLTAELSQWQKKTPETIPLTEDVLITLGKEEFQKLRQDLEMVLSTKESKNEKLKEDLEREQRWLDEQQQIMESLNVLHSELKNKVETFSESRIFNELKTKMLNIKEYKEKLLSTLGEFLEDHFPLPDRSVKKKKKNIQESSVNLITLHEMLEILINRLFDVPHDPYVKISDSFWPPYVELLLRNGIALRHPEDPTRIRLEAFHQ
UniProt P30305: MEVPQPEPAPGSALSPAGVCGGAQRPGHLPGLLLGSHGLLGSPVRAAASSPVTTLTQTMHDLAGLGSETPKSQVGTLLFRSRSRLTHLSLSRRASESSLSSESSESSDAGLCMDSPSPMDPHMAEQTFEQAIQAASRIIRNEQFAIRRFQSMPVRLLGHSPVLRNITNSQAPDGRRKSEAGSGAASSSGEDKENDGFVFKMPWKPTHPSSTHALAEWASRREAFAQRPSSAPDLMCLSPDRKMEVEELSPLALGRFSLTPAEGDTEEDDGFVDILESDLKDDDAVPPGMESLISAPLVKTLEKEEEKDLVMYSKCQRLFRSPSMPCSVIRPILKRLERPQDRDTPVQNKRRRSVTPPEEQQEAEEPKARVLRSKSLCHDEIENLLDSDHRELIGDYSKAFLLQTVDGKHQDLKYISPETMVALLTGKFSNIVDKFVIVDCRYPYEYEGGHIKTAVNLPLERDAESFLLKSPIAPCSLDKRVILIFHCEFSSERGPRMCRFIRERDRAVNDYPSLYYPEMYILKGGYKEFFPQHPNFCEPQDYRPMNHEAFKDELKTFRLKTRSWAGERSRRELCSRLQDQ
UniProt Q00534, whole entry, looked up: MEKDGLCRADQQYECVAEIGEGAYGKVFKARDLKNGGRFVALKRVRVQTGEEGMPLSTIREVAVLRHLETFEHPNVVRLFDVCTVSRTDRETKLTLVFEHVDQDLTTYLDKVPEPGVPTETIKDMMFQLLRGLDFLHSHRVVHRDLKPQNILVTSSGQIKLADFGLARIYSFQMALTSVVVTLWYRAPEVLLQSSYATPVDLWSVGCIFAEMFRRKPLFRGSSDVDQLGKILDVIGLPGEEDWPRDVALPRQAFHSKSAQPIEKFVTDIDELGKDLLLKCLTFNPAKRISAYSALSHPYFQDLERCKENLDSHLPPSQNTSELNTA
UniProt P50750, whole entry, looked up: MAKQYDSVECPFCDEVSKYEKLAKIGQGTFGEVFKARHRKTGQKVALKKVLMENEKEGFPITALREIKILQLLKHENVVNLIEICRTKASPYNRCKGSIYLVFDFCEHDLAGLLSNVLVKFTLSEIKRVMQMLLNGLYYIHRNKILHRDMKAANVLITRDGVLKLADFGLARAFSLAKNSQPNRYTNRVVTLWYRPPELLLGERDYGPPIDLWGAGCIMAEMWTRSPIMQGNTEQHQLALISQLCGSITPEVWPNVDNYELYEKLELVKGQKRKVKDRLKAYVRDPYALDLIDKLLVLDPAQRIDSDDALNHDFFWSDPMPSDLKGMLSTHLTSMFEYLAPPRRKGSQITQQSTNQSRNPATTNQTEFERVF
UniProt Q12834, whole entry, looked up: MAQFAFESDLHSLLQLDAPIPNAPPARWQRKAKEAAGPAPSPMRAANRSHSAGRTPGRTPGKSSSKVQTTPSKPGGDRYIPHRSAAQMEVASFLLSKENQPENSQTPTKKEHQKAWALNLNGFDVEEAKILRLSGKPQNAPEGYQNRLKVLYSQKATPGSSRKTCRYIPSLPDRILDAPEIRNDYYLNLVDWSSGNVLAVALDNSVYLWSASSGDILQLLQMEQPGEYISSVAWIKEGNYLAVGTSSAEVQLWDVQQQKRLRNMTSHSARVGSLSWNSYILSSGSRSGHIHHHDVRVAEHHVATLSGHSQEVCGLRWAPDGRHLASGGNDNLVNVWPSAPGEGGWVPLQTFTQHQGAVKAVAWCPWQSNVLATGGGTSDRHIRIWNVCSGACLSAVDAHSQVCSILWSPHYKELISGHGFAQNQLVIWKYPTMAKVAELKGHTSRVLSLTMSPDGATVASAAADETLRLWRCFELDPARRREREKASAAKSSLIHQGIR
UniProt P23528, whole entry, looked up: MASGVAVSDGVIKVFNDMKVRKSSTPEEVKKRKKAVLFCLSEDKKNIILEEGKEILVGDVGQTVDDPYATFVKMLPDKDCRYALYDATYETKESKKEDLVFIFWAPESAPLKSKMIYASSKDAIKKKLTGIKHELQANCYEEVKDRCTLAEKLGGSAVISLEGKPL
UniProt Q92879: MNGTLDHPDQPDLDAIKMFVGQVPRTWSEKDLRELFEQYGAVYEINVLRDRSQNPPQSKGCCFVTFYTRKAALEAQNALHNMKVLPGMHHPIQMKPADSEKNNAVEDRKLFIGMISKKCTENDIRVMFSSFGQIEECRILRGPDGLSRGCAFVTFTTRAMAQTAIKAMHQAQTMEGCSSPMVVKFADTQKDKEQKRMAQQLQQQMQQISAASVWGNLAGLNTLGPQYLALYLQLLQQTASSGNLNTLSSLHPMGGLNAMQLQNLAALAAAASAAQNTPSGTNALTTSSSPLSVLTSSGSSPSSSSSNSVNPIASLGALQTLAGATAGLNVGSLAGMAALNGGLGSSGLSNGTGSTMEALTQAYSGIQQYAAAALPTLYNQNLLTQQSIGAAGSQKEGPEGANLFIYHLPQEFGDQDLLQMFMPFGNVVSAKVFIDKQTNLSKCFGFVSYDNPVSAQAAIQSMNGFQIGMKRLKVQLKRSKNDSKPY
UniProt Q00535, whole entry, looked up: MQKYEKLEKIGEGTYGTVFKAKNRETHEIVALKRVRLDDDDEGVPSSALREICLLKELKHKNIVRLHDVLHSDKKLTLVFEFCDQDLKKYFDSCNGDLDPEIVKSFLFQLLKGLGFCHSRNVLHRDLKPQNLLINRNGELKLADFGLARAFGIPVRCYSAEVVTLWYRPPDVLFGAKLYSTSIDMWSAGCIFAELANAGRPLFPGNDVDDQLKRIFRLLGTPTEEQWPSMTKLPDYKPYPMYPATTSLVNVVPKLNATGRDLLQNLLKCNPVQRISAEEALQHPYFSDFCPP
UniProt Q8WUX2: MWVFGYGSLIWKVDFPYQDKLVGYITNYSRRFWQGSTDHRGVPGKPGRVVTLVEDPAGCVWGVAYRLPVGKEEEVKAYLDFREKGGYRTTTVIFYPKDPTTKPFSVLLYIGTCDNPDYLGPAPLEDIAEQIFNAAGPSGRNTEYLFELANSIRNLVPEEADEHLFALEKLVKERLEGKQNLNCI
UniProt Q9UQ88: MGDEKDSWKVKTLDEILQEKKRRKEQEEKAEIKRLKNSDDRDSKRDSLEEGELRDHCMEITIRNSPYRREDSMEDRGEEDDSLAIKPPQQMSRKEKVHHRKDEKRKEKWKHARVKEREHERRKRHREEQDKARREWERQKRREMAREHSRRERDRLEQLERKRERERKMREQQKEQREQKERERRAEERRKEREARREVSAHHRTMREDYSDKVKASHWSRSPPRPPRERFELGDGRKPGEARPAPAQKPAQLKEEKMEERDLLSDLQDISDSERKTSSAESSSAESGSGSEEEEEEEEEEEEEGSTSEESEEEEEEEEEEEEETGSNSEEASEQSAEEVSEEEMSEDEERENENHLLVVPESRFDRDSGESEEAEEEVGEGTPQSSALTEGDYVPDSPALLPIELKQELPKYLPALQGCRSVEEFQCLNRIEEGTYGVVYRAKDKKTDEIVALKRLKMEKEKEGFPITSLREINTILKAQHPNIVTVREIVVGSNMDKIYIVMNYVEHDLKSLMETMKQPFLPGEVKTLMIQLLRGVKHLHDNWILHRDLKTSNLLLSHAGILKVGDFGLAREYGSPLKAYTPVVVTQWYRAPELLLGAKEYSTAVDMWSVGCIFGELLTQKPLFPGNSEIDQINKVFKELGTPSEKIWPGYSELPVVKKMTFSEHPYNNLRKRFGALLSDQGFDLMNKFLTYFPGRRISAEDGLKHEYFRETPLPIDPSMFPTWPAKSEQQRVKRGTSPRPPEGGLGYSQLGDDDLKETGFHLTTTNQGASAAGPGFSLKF
UniProt P60953, whole entry, looked up: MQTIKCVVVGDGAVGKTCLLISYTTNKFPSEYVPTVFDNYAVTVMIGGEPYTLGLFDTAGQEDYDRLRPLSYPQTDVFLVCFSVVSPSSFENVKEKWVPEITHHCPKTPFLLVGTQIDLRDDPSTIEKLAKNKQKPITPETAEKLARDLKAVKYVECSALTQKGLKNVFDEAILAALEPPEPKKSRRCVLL
UniProt Q711Q0: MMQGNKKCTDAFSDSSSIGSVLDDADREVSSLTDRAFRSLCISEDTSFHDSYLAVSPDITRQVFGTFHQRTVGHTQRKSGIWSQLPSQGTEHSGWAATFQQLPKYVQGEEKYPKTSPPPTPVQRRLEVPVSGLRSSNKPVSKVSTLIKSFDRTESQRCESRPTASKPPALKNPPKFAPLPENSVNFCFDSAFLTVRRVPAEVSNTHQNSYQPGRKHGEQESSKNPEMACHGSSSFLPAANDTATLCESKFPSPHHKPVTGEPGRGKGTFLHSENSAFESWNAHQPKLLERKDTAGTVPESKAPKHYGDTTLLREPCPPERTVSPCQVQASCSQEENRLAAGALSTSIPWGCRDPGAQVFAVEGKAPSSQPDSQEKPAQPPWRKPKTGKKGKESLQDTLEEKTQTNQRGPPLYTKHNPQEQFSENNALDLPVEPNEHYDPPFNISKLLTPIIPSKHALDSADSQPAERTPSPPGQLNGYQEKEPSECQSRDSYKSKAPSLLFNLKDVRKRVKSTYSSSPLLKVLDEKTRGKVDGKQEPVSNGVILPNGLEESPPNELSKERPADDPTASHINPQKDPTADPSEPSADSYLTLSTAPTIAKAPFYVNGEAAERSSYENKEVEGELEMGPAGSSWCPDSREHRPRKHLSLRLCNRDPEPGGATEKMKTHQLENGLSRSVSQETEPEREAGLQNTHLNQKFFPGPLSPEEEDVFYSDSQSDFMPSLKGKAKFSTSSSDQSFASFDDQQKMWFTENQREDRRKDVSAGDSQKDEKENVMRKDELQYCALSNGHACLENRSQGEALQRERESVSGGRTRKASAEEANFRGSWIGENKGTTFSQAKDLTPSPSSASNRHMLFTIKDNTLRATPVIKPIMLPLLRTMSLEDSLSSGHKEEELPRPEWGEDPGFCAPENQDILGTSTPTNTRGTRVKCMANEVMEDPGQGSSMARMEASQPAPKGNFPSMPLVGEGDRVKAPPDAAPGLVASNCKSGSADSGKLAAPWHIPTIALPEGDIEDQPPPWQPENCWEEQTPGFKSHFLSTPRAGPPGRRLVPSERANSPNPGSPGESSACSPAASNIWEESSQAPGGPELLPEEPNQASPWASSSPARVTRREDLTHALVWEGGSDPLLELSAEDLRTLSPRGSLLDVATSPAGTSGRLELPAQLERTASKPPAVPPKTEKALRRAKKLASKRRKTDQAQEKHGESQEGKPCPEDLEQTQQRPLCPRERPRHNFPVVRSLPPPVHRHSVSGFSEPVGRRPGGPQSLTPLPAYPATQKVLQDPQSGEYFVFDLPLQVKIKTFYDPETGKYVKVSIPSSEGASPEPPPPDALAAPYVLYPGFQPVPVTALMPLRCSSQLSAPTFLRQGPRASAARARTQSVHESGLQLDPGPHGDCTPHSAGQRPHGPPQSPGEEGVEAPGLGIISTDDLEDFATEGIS
UniProt O95674: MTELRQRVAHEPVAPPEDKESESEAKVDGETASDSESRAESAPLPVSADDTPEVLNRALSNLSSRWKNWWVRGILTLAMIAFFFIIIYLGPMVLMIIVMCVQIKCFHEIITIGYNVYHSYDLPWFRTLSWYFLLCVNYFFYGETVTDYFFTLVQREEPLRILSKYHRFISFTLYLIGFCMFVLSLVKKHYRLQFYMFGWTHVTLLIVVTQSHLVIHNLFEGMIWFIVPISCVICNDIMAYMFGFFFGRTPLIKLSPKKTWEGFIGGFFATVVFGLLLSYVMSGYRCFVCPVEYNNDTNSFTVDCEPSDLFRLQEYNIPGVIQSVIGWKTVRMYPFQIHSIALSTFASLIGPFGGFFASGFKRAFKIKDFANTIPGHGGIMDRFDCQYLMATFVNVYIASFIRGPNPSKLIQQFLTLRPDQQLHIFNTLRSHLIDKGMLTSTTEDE

[2] = compound: CC(=O)c1cnc2ccc(-c3cc(Cl)c(O)c(Cl)c3)nc2c1N[C@H]1CC[C@H](CN(C)C)CC1
Outline: as §1

[3] = compound: CC(C)(C)Cn1c(N)nc2ccc(-c3[nH]c(C(C)(C)C)nc3-c3ccc(F)cc3)nc21 [ralimetinib]
Outline: as §1

[4] = compound: CC(C)(O)CC(=O)NCCn1ccc2ncnc(Nc3ccc(Oc4cccc(C(F)(F)F)c4)c(Cl)c3)c21
Outline: as §1

[5] = compound: CC(C)C1=C2N=C(C=C(N2N=C1)NCC3=CC=CC=C3)NCCCCCCN
Outline: as §1

[6] = compound: CC1=C(C(CC(=O)N1)C2=CC=C(C=C2)C(F)(F)F)C(=O)NC3=C(C=C4C(=C3)C=NN4)F
Outline: as §1

[7] = compound: CC1=C(C2=C(C=C1)C(=O)C3=CC=CC=C3N2CCCN)C
Outline: as §1

[8] = compound: CC1=C(C=C(C=C1)NC(=O)C2=CC(=CC=C2)C(C)(C)C#N)NC3=CC4=C(C=C3)N=CN(C4=O)C
Outline: as §1

[9] = compound: CC1=C(C=C(C=C1)NC(=O)C2=CC(=CC=C2)N(C)C)NC(=O)C3=CC=C(C=C3)O
Outline: as §1

[10] = compound: CC1=CC=C(C=C1)SC2=C3C=C(SC3=CN=C2)C(=O)N
Outline: as §1

[11] = compound: CCCS(=O)(=O)Nc1ccc(F)c(C(=O)c2c[nH]c3ncc(-c4ccc(Cl)cc4)cc23)c1F [vemurafenib]
Outline: as §1

[12] = compound: CCCS(=O)(=O)Nc1ccc(F)c(C(=O)c2c[nH]c3ncc(Cl)cc23)c1F
Outline: as §1

[13] = compound: CCN(CCCOc1ccc2c(Nc3cc(CC(=O)Nc4cccc(F)c4)[nH]n3)ncnc2c1)CCOP(=O)(O)O [barasertib]
Outline: as §1

[14] = compound: CC[C@@H]1C(=O)N(C)c2cnc(Nc3ccc(C(=O)NC4CCN(C)CC4)cc3OC)nc2N1C1CCCC1
Outline: as §1

[15] = compound: CC[C@@H]1C(=O)N(C)c2cnc(Nc3ccc(C(=O)N[C@H]4CC[C@H](N5CCN(CC6CC6)CC5)CC4)cc3OC)nc2N1C(C)C [volasertib]
Outline: as §1

[16] = compound: CCn1c(C(=O)N(C2CC2)C2CC2)cc2c3c(ncn3C)c(Nc3cc(C)n(C)n3)nc21
Outline: as §1

[17] = compound: CCn1cc(-c2ccnc3[nH]c(-c4cccc(CN(C)C)c4)cc23)c(-c2ccc(NC(=O)N(C)C)cc2)n1
Outline: as §1

[18] = compound: CN1CCC(CNc2ccc3ncc(-c4cccc(OC(F)(F)F)c4)n3n2)CC1
Outline: as §1

[19] = compound: CN1CCN(CCOc2cc(OC3CCOCC3)c3c(Nc4c(Cl)ccc5c4OCO5)ncnc3c2)CC1 [saracatinib]
Outline: as §1

[20] = compound: CN1CCN(c2nc(C3=C(c4c[nH]c5ccccc45)C(=O)NC3=O)c3ccccc3n2)CC1 [sotrastaurin]
Outline: as §1

Measured: log2 fold change

CFDP1 (UniProt Q9UEE9)
inactive: [1] 0.032 | [2] 0.014 | [3] 0.051 | [4] -0.015 | [5] -0.052 | [6] -0.014 | [7] -0.027 | [8] 0.021 | [9] 0.027 | [10] -0.012 | [11] -0.02 | [12] -0.008 | [13] -0.066 | [14] 0.025 | [15] 0.039 | [16] -0.015 | [18] 0.105 | [19] -0.007 | [20] 0.024
active: [17] -0.311

CENPK (UniProt Q9BS16)
inactive: [1] 0.024 | [2] 0.09 | [3] -0.003 | [4] -0.004 | [5] 0.004 | [6] 0.018 | [7] -0.011 | [8] -0.047 | [9] 0.051 | [10] -0.112 | [11] 0.094 | [12] 0.046 | [13] 0.126 | [14] 0.047 | [15] 0.137 | [16] 0.031 | [17] 0.041 | [18] -0.004 | [19] 0.032 | [20] 0.038

CDC25B (UniProt P30305)
inactive: [1] 0.002 | [2] 0.108 | [3] 0.075 | [4] -0.011 | [5] -0.074 | [6] -0.028 | [7] -0.044 | [8] 0.008 | [9] -0.039 | [10] 0.065 | [11] 0.058 | [12] -0.193 | [13] -0.014 | [14] 0 | [15] 0.095 | [16] 0.015 | [17] 0.036 | [18] 0.042 | [19] -0.067 | [20] 0.007

CDK6 (UniProt Q00534)
inactive: [1] 0.011 | [2] -0.01 | [3] -0.005 | [4] 0.003 | [5] -0.031 | [6] -0.013 | [7] 0.023 | [8] -0.041 | [9] -0.009 | [10] -0.003 | [11] -0.025 | [12] -0.002 | [13] -0.001 | [14] -0.05 | [15] 0.008 | [16] -0.006 | [17] -0.011 | [18] -0.004 | [19] -0.013 | [20] 0.009

CDK9 isoform 2 (UniProt P50750)
active: [20] 0.34
inactive: [1] -0.042 | [2] 0.269 | [3] 0.013 | [4] 0.026 | [5] -0.092 | [6] -0.026 | [7] -0.021 | [8] -0.032 | [9] 0.004 | [10] -0.021 | [11] -0.117 | [12] -0.064 | [13] -0.025 | [14] 0.009 | [15] 0.002 | [16] 0.175 | [17] -0.203 | [18] 0.079 | [19] 0.005

CDC20 (UniProt Q12834)
inactive: [1] 0.04 | [2] 0.03 | [3] -0.036 | [4] 0.018 | [5] 0.042 | [6] -0.006 | [7] -0.081 | [8] 0.035 | [9] -0.064 | [10] 0.091 | [11] 0.19 | [12] 0.054 | [13] 0.049 | [14] 0.016 | [15] -0.023 | [16] -0.067 | [17] 0.024 | [18] 0.016 | [19] 0.103 | [20] -0.012

CFL1 (UniProt P23528)
inactive: [1] -0.025 | [2] 0.015 | [3] -0.014 | [4] -0.008 | [5] -0.007 | [6] -0.036 | [7] 0.02 | [8] -0.03 | [9] -0.019 | [10] -0.004 | [11] -0.024 | [12] 0.001 | [13] -0.01 | [14] -0.024 | [15] 0.032 | [16] -0.004 | [17] 0.108 | [18] -0.02 | [19] -0.017 | [20] -0.017

CELF1 isoform 4 (UniProt Q92879)
inactive: [1] 0.027 | [2] -0.027 | [3] 0.034 | [4] -0.004 | [5] 0.033 | [6] 0.072 | [7] 0.016 | [9] 0 | [10] 0.025 | [11] 0.024 | [12] 0.014 | [13] 0.03 | [14] -0.044 | [15] -0.133 | [16] 0.012 | [17] 0.08 | [18] -0.08 | [19] 0.035 | [20] 0.054
active: [8] -0.331

CDK5 (UniProt Q00535)
active: [2] 0.53
inactive: [1] 0.015 | [3] 0.004 | [4] -0.023 | [5] -0.032 | [6] -0.034 | [7] -0.006 | [8] -0.052 | [9] 0.023 | [10] -0.058 | [11] -0.021 | [12] 0.022 | [14] -0.08 | [15] -0.079 | [16] 0.008 | [17] -0.055 | [18] 0.071 | [19] -0.008 | [20] 0.175

Quoted from the entries so far (2 entries):
CDC20 (UniProt Q12834)
inactive: [1] 0.04 | [2] 0.03 | [3] -0.036 | [4] 0.018 | [5] 0.042 | [6] -0.006 | [7] -0.081 | [8] 0.035 | [9] -0.064 | [10] 0.091 | [11] 0.19 | [12] 0.054 | [13] 0.049 | [14] 0.016 | [15] -0.023 | [16] -0.067 | [17] 0.024 | [18] 0.016 | [19] 0.103 | [20] -0.012

CFL1 (UniProt P23528)
inactive: [1] -0.025 | [2] 0.015 | [3] -0.014 | [4] -0.008 | [5] -0.007 | [6] -0.036 | [7] 0.02 | [8] -0.03 | [9] -0.019 | [10] -0.004 | [11] -0.024 | [12] 0.001 | [13] -0.01 | [14] -0.024 | [15] 0.032 | [16] -0.004 | [17] 0.108 | [18] -0.02 | [19] -0.017 | [20] -0.017

Next part

CHAC2 (UniProt Q8WUX2)
inactive: [1] -0.064 | [2] -0.014 | [3] -0.01 | [4] 0.043 | [5] -0.118 | [6] -0.026 | [7] -0.048 | [8] -0.016 | [9] 0.017 | [10] -0.031 | [11] -0.028 | [12] -0.004 | [13] -0.006 | [14] -0.044 | [15] 0.006 | [16] 0.02 | [18] -0.154 | [19] -0.018 | [20] -0.031
active: [17] 0.649

CDK11A (UniProt Q9UQ88)
active: [2] 0.414
inactive: [1] 0.022 | [3] 0.003 | [4] 0.056 | [5] -0.036 | [6] -0.03 | [7] -0.022 | [8] 0.002 | [9] 0.025 | [10] -0.014 | [12] -0.019 | [13] 0.029 | [15] -0.135 | [16] 0.047 | [17] 0.127 | [18] -0.099 | [19] -0.069 | [20] -0.026

CDR2 (UniProt Q01850)
inactive: [1] 0.057 | [2] -0.024 | [3] 0.022 | [4] -0.034 | [5] 0.016 | [6] 0.004 | [7] 0.008 | [8] 0.022 | [9] 0.016 | [10] 0.081 | [11] -0.063 | [12] -0.002 | [13] -0.013 | [14] 0.091 | [15] 0.025 | [16] 0.072 | [17] 0.013 | [18] -0.01 | [19] -0.044 | [20] 0.116

CDC42 (UniProt P60953)
inactive: [1] 0.04 | [2] 0 | [3] -0.031 | [4] 0.018 | [5] 0.044 | [6] -0.014 | [7] -0.045 | [8] 0.008 | [9] -0.029 | [10] 0.007 | [11] -0.064 | [12] -0.032 | [13] -0.019 | [14] 0.101 | [15] -0.017 | [16] 0.024 | [17] 0.159 | [18] -0.148 | [19] 0.001 | [20] -0.008

CEFIP (UniProt Q711Q0)
inactive: [1] -0.052 | [2] 0.138 | [3] 0.018 | [4] -0.187 | [5] -0.098 | [6] -0.14 | [8] -0.035 | [9] 0.046 | [10] -0.065 | [11] 0.06 | [12] 0.036 | [13] -0.01 | [14] 0.142 | [15] -0.017 | [16] -0.055 | [17] -0.051 | [18] -0.002 | [20] 0.051

CDC37L1 (UniProt Q7L3B6)
inactive: [1] 0.077 | [2] -0.012 | [3] -0.023 | [4] -0.033 | [5] -0.001 | [6] 0.058 | [7] 0.025 | [8] -0.004 | [9] 0.009 | [10] -0.005 | [11] 0.035 | [12] -0.003 | [13] 0.121 | [14] 0.069 | [15] 0.01 | [16] -0.033 | [17] -0.033 | [18] -0.002 | [19] 0.033 | [20] 0.028

CDS2 (UniProt O95674)
inactive: [1] 0.008 | [2] -0.013 | [3] -0.061 | [4] -0.07 | [5] -0.03 | [6] -0.025 | [7] 0.004 | [8] 0.05 | [9] 0.04 | [10] -0.015 | [11] 0.09 | [12] 0.041 | [13] 0.027 | [14] 0.026 | [15] 0.005 | [16] -0.006 | [17] 0.015 | [18] 0.004 | [19] -0.053 | [20] 0.037

From the supplement of paper PMC10849652
